Record: PubChem BioAssay AID504791 (Drosophila RNAi Screening Center, 2011)
Screen: 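Genes of the fly required for silencing by miRNA, siRNA or endo-siRNA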 (primary screen). System: Drosophila S2-derived reporter cells. Reagents: long dsRNA against Drosophila genes, about 150-250 ng dsRNA per well (siRNA assay); about 80-120 ng (miRNA assay). Duration: about 5 days (siRNA assay); about 4 days (miRNA assay). Challenge: copper sulfate induction of reporters: 25 µM (siRNA assay); 200 mM stated (miRNA assay), 1-2 days before reading. Detection: 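Dual luciferase assay: Renilla to firefly signal ratio in each well, scaled to the mean ratio of its plate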. Call rule: 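First-pass picks had plate-scaled ratios over 1.5 for the siRNA assay, over 1.6 for the miRNA assay, or under 0.6; two distinct dsRNAs had to score alike on retest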.
The deposit covers about 23,000 reagents; below is an unselected part of those that have a named target and a result. Of all reagents, 199 (0.86%) are marked active. 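Plate-scaled ratios behind the calls are not deposited; printed light signals are raw; many rows marked increased or decreased are still called inactive.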 Reagents against one gene are numbered here. Names joined by + are all predicted targets of the reagent. The record does not give: the direction of the score.

predicted target	reagent	stable siRNA reporter change	miRNA reporter change	stable assay Renilla, run 1 (luminescence)	stable assay firefly, run 1 (luminescence)	outcome
CG14355	1			9429	6.57e5	inactive
CG32576	1			4407	3.94e5	inactive
CG11298	1			7618	4.82e5	inactive
CG31259	1			6371	3.72e5	inactive
CG6034	1			7748	4.79e5	inactive
Vha68-3 (Vacuolar H[+] ATPase 68kD subunit 3)	1			8565	4.66e5	inactive
cup	1			2.10e5	1.20e6	inactive
CG7634	1			8253	5.56e5	inactive
CG33258	1			5556	4.23e5	inactive
CG5131	1			7066	4.59e5	inactive
CG11317	1			8478	4.63e5	inactive
CG13403	1			6795	4.38e5	inactive
Prosalpha5 (Proteasome alpha5 subunit)	1	reporter ratio raised past the hit cutoff		15722	2.29e5	active
Gr92a (Gustatory receptor 92a)	1			9026	4.88e5	inactive
Sas-6 (Spindle assembly abnormal 6)	1			5710	3.33e5	inactive
rha	1			8775	7.29e5	inactive
CG11164	1			4591	4.05e5	inactive
ics (icarus)	1			6442	1.25e6	inactive
dimm (dimmed)	1			6622	3.65e5	inactive
CG17192	1			5248	3.54e5	inactive
Uro (Urate oxidase)	1			7834	5.27e5	inactive
CG15255	1			8639	3.52e5	inactive
Ced-12	1			6858	5.31e5	inactive
bigmax	1	reporter ratio lowered past the hit cutoff		5074	4.95e5	inactive
CG7988	1			6006	2.83e5	inactive
Inx7 (Innexin 7)	1			6007	2.40e5	inactive
Exd2 (Exonuclease 3'-5' domain-containing 2)	1			6387	3.69e5	inactive
CG11741	1			6598	3.56e5	inactive
CG10834	1			8076	5.37e5	inactive
CSN1a (COP9 signalosome subunit 1a)	1			7326	4.39e5	inactive
tipE (temperature-induced paralytic E)	1			7547	3.46e5	inactive
ana1 (anastral spindle 1)	1			11117	5.29e5	inactive
ana1 (anastral spindle 1)	2			8981	5.78e5	inactive
Blm + CG14721	1			7669	5.04e5	inactive
CG11790	1			12256	4.52e5	inactive
Targ (Tarag)	1			5890	3.36e5	inactive
CG5250	1			7979	4.48e5	inactive
COX6AL (Cytochrome c oxidase subunit 6A-like)	1			4087	4.51e5	inactive
path (pathetic)	1			5155	2.73e5	inactive
TTLL6A (Tubulin tyrosine ligase-like 6A)	1			5944	2.99e5	inactive
CG33655	1			4640	2.82e5	inactive
CG15022	1			8665	4.36e5	inactive
CG42240	1			3039	2.73e5	inactive
CG7656	1	reporter ratio lowered past the hit cutoff		4999	4.27e5	inactive
loco (locomotion defects)	1			7222	3.25e5	inactive
loco (locomotion defects)	2			10747	3.78e5	inactive
twr (twisted bristles roughened eye)	1			7290	5.88e5	inactive
RanBPM (Ran-binding protein M)	1			7895	4.46e5	inactive
gkt (glaikit)	1			7918	4.84e5	inactive
elfless	1			8445	5.78e5	inactive
CG14715	1			8387	4.08e5	inactive
Snx17 (Sorting nexin 17)	1		reporter ratio raised past the hit cutoff	12780	2.61e5	inactive
CG31546	1			8413	3.43e5	inactive
Vha55 (Vacuolar H[+]-ATPase 55kD subunit)	1			7598	4.19e5	inactive
CG13527	1			6911	4.26e5	inactive
CG17776	1			5811	3.78e5	inactive
CG13840	1			7940	3.88e5	inactive
CG13840	2			5002	3.56e5	inactive
